Experimental data taken from the supplement of paper PMC8728848.
This is one part of the list.

Legend:
Experiment in all cases: glycan array binding signal (z-score within array); higher = stronger binding
Details in all cases: glycan notation: IUPAC condensed, linker removed
[1] = system: Gal(b1-4)GlcNAc(b1-2)Man(a1-6)[GlcNAc(b1-2)Man(a1-3)]Man(b1-4)GlcNAc(b1-4)GlcNAc
Outline: (§1)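 Arrays were curated from the Consortium for Functional Glycomics database, 3228 in total, and kept only where the protein sequence was available. Binding is expressed as a within-array Z-score. This score was averaged across arrays of the same protein sequence at different concentrations or buffers and across linkers, and negative values can be read as non-binding.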

[2] = system: Gal(b1-4)GlcNAc(b1-2)Man(a1-6)[Man(a1-3)]Man(b1-4)GlcNAc(b1-4)GlcNAc
Outline: as §1

Gal(b1-4)GlcNAc(b1-2)Man = system: Gal(b1-4)GlcNAc(b1-2)Man
Outline: as §1

[3] = system: Gal(b1-4)GlcNAc(b1-2)[Gal(b1-4)GlcNAc(b1-4)]Man(a1-3)[Gal(b1-4)GlcNAc(b1-2)Man(a1-6)]Man(b1-4)GlcNAc(b1-4)GlcNAc
Outline: as §1

[4] = system: Gal(b1-4)GlcNAc(b1-2)[Gal(b1-4)GlcNAc(b1-4)]Man(a1-3)[Gal(b1-4)GlcNAc(b1-2)[Gal(b1-4)GlcNAc(b1-6)]Man(a1-6)]Man(b1-4)GlcNAc(b1-4)GlcNAc
Outline: as §1

[5] = system: Gal(b1-4)GlcNAc(b1-2)[Gal(b1-4)GlcNAc(b1-4)]Man(a1-3)[GlcNAc(b1-4)][Gal(b1-4)GlcNAc(b1-2)Man(a1-6)]Man(b1-4)GlcNAc(b1-4)GlcNAc
Outline: as §1

[6] = system: Gal(b1-4)GlcNAc(b1-2)[Gal(b1-4)GlcNAc(b1-4)]Man(a1-3)[GlcNAc(b1-4)][Gal(b1-4)GlcNAc(b1-2)[Gal(b1-4)GlcNAc(b1-6)]Man(a1-6)]Man(b1-4)GlcNAc(b1-4)GlcNAc
Outline: as §1

[7] = system: Gal(b1-4)GlcNAc(b1-2)[Gal(b1-4)GlcNAc(b1-6)]Man(a1-6)[Gal(b1-4)GlcNAc(b1-2)Man(a1-3)]Man(b1-4)GlcNAc(b1-4)GlcNAc
Outline: as §1

[8] = system: Gal(b1-4)GlcNAc(b1-2)[Gal(b1-4)GlcNAc(b1-6)]Man(a1-6)[Gal(b1-4)GlcNAc(b1-2)Man(a1-3)]Man(b1-4)GlcNAc(b1-4)[Fuc(a1-6)]GlcNAc
Outline: as §1

[9] = system: Gal(b1-4)GlcNAc(b1-2)[Gal(b1-4)GlcNAc(b1-6)]Man(a1-6)[GlcNAc(b1-4)][Gal(b1-4)GlcNAc(b1-2)Man(a1-3)]Man(b1-4)GlcNAc(b1-4)GlcNAc
Outline: as §1

[10] = system: Gal(b1-4)GlcNAc(b1-2)[Gal(b1-4)GlcNAc(b1-6)]Man(a1-6)[GlcNAc(b1-4)][Gal(b1-4)GlcNAc(b1-2)[Gal(b1-4)GlcNAc(b1-4)]Man(a1-3)]Man(b1-4)GlcNAc(b1-4)[Fuc(a1-6)]GlcNAc
Outline: as §1

[11] = system: Gal(b1-4)GlcNAc(b1-3)Gal(b1-3)GalNAc
Outline: as §1

[12] = system: Gal(b1-4)GlcNAc(b1-3)Gal(b1-3)GlcNAc
Outline: as §1

[13] = system: Gal(b1-4)GlcNAc(b1-3)Gal(b1-4)GlcNAc(b1-2)Man(a1-3)[Gal(b1-4)GlcNAc(b1-3)Gal(b1-4)GlcNAc(b1-2)Man(a1-6)]Man(b1-4)GlcNAc(b1-4)GlcNAc
Outline: as §1

[14] = system: Gal(b1-4)GlcNAc(b1-3)Gal(b1-4)GlcNAc(b1-2)Man(a1-3)[Gal(b1-4)GlcNAc(b1-3)Gal(b1-4)GlcNAc(b1-2)Man(a1-6)]Man(b1-4)GlcNAc(b1-4)[Fuc(a1-6)]GlcNAc
Outline: as §1

[15] = system: Gal(b1-4)GlcNAc(b1-3)Gal(b1-4)GlcNAc(b1-2)[Gal(b1-4)GlcNAc(b1-3)Gal(b1-4)GlcNAc(b1-6)]Man(a1-6)[Gal(b1-4)GlcNAc(b1-3)Gal(b1-4)GlcNAc(b1-2)Man(a1-3)]Man(b1-4)GlcNAc(b1-4)GlcNAc
Outline: as §1

[16] = system: Gal(b1-4)GlcNAc(b1-3)Gal(b1-4)GlcNAc(b1-2)[Gal(b1-4)GlcNAc(b1-3)Gal(b1-4)GlcNAc(b1-6)]Man(a1-6)[Gal(b1-4)GlcNAc(b1-3)Gal(b1-4)GlcNAc(b1-2)Man(a1-3)]Man(b1-4)GlcNAc(b1-4)[Fuc(a1-6)]GlcNAc
Outline: as §1

[17] = system: Gal(b1-4)GlcNAc(b1-3)Gal(b1-4)GlcNAc(b1-3)Gal(b1-4)GlcNAc(b1-2)Man(a1-3)[Gal(b1-4)GlcNAc(b1-3)Gal(b1-4)GlcNAc(b1-3)Gal(b1-4)GlcNAc(b1-2)Man(a1-6)]Man(b1-4)GlcNAc(b1-4)GlcNAc
Outline: as §1

[18] = system: Gal(b1-4)GlcNAc(b1-3)Gal(b1-4)GlcNAc(b1-3)Gal(b1-4)GlcNAc(b1-2)Man(a1-3)[Gal(b1-4)GlcNAc(b1-3)Gal(b1-4)GlcNAc(b1-3)Gal(b1-4)GlcNAc(b1-2)Man(a1-6)]Man(b1-4)GlcNAc(b1-4)[Fuc(a1-6)]GlcNAc
Outline: as §1

[19] = system: Gal(b1-4)GlcNAc(b1-3)Gal(b1-4)GlcNAc(b1-3)Gal(b1-4)GlcNAc(b1-2)[Gal(b1-4)GlcNAc(b1-3)Gal(b1-4)GlcNAc(b1-3)Gal(b1-4)GlcNAc(b1-6)]Man(a1-6)[Gal(b1-4)GlcNAc(b1-3)Gal(b1-4)GlcNAc(b1-3)Gal(b1-4)GlcNAc(b1-2)Man(a1-3)]Man(b1-4)GlcNAc(b1-4)[Fuc(a1-6)]GlcNAc
Outline: as §1

[20] = system: Gal(b1-4)GlcNAc(b1-3)Gal(b1-4)GlcNAc(b1-3)Gal(b1-4)GlcNAc(b1-3)Gal(b1-4)GlcNAc(b1-2)Man(a1-3)[Gal(b1-4)GlcNAc(b1-3)Gal(b1-4)GlcNAc(b1-3)Gal(b1-4)GlcNAc(b1-3)Gal(b1-4)GlcNAc(b1-2)Man(a1-6)]Man(b1-4)GlcNAc(b1-4)GlcNAc
Outline: as §1

[21] = system: Gal(b1-4)GlcNAc(b1-3)Gal(b1-4)GlcNAc(b1-3)Gal(b1-4)GlcNAc(b1-3)Gal(b1-4)GlcNAc(b1-2)Man(a1-3)[Gal(b1-4)GlcNAc(b1-3)Gal(b1-4)GlcNAc(b1-3)Gal(b1-4)GlcNAc(b1-3)Gal(b1-4)GlcNAc(b1-2)Man(a1-6)]Man(b1-4)GlcNAc(b1-4)[Fuc(a1-6)]GlcNAc
Outline: as §1

[22] = system: Gal(b1-4)GlcNAc(b1-3)Gal(b1-4)GlcNAc(b1-3)Gal(b1-4)GlcNAc(b1-3)Gal(b1-4)GlcNAc(b1-2)[Gal(b1-4)GlcNAc(b1-3)Gal(b1-4)GlcNAc(b1-3)Gal(b1-4)GlcNAc(b1-3)Gal(b1-4)GlcNAc(b1-6)]Man(a1-6)[Gal(b1-4)GlcNAc(b1-3)Gal(b1-4)GlcNAc(b1-3)Gal(b1-4)GlcNAc(b1-3)Gal(b1-4)GlcNAc(b1-2)Man(a1-3)]Man(b1-4)GlcNAc(b1-4)[Fuc(a1-6)]GlcNAc
Outline: as §1

[23] = system: Gal(b1-4)GlcNAc(b1-3)Gal(b1-4)GlcNAc(b1-3)Gal(b1-4)GlcNAc(b1-3)Gal(b1-4)GlcNAc(b1-3)Gal(b1-4)GlcNAc(b1-2)Man(a1-3)[Gal(b1-4)GlcNAc(b1-3)Gal(b1-4)GlcNAc(b1-3)Gal(b1-4)GlcNAc(b1-3)Gal(b1-4)GlcNAc(b1-3)Gal(b1-4)GlcNAc(b1-2)Man(a1-6)]Man(b1-4)GlcNAc(b1-4)GlcNAc
Outline: as §1

[24] = system: Gal(b1-4)GlcNAc(b1-3)Gal(b1-4)GlcNAc(b1-3)Gal(b1-4)GlcNAc(b1-3)Gal(b1-4)GlcNAc(b1-3)Gal(b1-4)GlcNAc(b1-2)Man(a1-3)[Gal(b1-4)GlcNAc(b1-3)Gal(b1-4)GlcNAc(b1-3)Gal(b1-4)GlcNAc(b1-3)Gal(b1-4)GlcNAc(b1-3)Gal(b1-4)GlcNAc(b1-2)Man(a1-6)]Man(b1-4)GlcNAc(b1-4)[Fuc(a1-6)]GlcNAc
Outline: as §1

[25] = system: Gal(b1-4)GlcNAc(b1-3)Gal(b1-4)GlcNAc(b1-3)Gal(b1-4)GlcNAc(b1-3)Gal(b1-4)GlcNAc(b1-3)Gal(b1-4)GlcNAc(b1-2)[Gal(b1-4)GlcNAc(b1-3)Gal(b1-4)GlcNAc(b1-3)Gal(b1-4)GlcNAc(b1-3)Gal(b1-4)GlcNAc(b1-3)Gal(b1-4)GlcNAc(b1-6)]Man(a1-6)[Gal(b1-4)GlcNAc(b1-3)Gal(b1-4)GlcNAc(b1-3)Gal(b1-4)GlcNAc(b1-3)Gal(b1-4)GlcNAc(b1-3)Gal(b1-4)GlcNAc(b1-2)Man(a1-3)]Man(b1-4)GlcNAc(b1-4)[Fuc(a1-6)]GlcNAc
Outline: as §1

[26] = system: Gal(b1-4)GlcNAc(b1-3)Gal(b1-4)GlcNAc(b1-3)Gal(b1-4)GlcNAc(b1-3)Gal(b1-4)GlcNAc(b1-3)Gal(b1-4)GlcNAc(b1-3)Gal(b1-4)GlcNAc(b1-2)Man(a1-3)[Gal(b1-4)GlcNAc(b1-3)Gal(b1-4)GlcNAc(b1-3)Gal(b1-4)GlcNAc(b1-3)Gal(b1-4)GlcNAc(b1-3)Gal(b1-4)GlcNAc(b1-3)Gal(b1-4)GlcNAc(b1-2)Man(a1-6)]Man(b1-4)GlcNAc(b1-4)GlcNAc
Outline: as §1

[27] = system: Gal(b1-4)GlcNAc(b1-3)Gal(b1-4)GlcNAc(b1-3)Gal(b1-4)GlcNAc
Outline: as §1

[28] = system: Gal(b1-4)GlcNAc(b1-3)Gal(b1-4)GlcNAc(b1-3)GalNAc
Outline: as §1

[29] = system: Gal(b1-4)GlcNAc(b1-3)Gal(b1-4)GlcNAc(b1-3)[Gal(b1-4)GlcNAc(b1-3)Gal(b1-4)GlcNAc(b1-6)]GalNAc
Outline: as §1

[30] = system: Gal(b1-4)GlcNAc(b1-3)Gal(b1-4)GlcNAc(b1-6)[Gal(b1-3)]GalNAc
Outline: as §1

[31] = system: Gal(b1-4)GlcNAc(b1-3)Gal(b1-4)GlcNAc
Outline: as §1

For MpAFP RI GFP (Marinomonas primoryensis), the “glycan array binding signal (z-score)” value [1] was -0.304, the “glycan array binding signal (z-score)” value [2] was -0.596 and the “glycan array binding signal (z-score)” value (Gal(b1-4)GlcNAc(b1-2)Man) was 1.23. For the same substance, the “glycan array binding signal (z-score)” value [3] was 0.259, the “glycan array binding signal (z-score)” value [4] was -0.325 and the “glycan array binding signal (z-score)” value [5] was -0.553. The “glycan array binding signal (z-score)” value [6] was -0.242, the “glycan array binding signal (z-score)” value [7] was -0.226 and the “glycan array binding signal (z-score)” value [8] was 0.165. For the same substance, the “glycan array binding signal (z-score)” value [9] was -0.095, the “glycan array binding signal (z-score)” value [10] was -0.149 and the “glycan array binding signal (z-score)” value [11] was -0.519. The “glycan array binding signal (z-score)” value [12] was 0.524, the “glycan array binding signal (z-score)” value [13] was 2.61 and the “glycan array binding signal (z-score)” value [14] was 0.984. For the same substance, the “glycan array binding signal (z-score)” value [15] was 2.06, the “glycan array binding signal (z-score)” value [16] was 5.48 and the “glycan array binding signal (z-score)” value [17] was 1.72. For the same substance, the “glycan array binding signal (z-score)” value [18] was 1.39, the “glycan array binding signal (z-score)” value [19] was 3.87 and the “glycan array binding signal (z-score)” value [20] was 1.36. The “glycan array binding signal (z-score)” value [21] was 1.15, the “glycan array binding signal (z-score)” value [22] was 2.53 and the “glycan array binding signal (z-score)” value [23] was 1.06. The “glycan array binding signal (z-score)” value [24] was 1.32, the “glycan array binding signal (z-score)” value [25] was 2.17 and the “glycan array binding signal (z-score)” value [26] was 0.317. For the same substance, the “glycan array binding signal (z-score)” value [27] was -0.561, the “glycan array binding signal (z-score)” value [28] was 0.509 and the “glycan array binding signal (z-score)” value [29] was 1.37. The “glycan array binding signal (z-score)” value [30] was -0.105 and the “glycan array binding signal (z-score)” value [31] was -0.727.
